In all, about 33,000 sequences were measured (“E-score (-0.5 to 0.5)”: median about -0.0014, highest 2% from about 0.25 on). Some of the results follow.
Molecular target: T1, Cad1 (UniProt P24813)
T1 sequence: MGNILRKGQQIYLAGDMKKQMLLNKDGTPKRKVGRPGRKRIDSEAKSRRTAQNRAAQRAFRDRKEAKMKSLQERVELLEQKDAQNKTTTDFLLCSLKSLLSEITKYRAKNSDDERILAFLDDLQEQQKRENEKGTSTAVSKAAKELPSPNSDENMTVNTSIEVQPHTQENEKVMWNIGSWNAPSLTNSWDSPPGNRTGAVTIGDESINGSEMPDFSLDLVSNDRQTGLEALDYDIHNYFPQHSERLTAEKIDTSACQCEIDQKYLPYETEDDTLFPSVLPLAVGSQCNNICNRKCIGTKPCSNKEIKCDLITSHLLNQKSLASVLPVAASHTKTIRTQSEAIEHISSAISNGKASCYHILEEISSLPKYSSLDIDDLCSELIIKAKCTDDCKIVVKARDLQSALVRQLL
Test: PBM E-score (8-mer binding enrichment) (E-score (-0.5 to 0.5)); higher = stronger / more preferred TF binding
Details: protein concentration: 100 nM; construct: GST-full length
Outline: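 Full-length yeast transcription factors or their DNA-binding domains, GST-tagged and expressed with PURExpress, were applied at about 100-200 nM to universal all-10-mer Agilent arrays. These arrays had been made double-stranded by primer extension on fresh or once-stripped slides. Detection used fluorescent anti-GST, normalisation used masliner, and E-scores for ungapped eight-base words pooled with reverse complements came from the Universal PBM Analysis Suite.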

Row | Sequence | PBM E-score
1 | ACGGCTGA | 0.0503
2 | AACTGTCG | 0.0559
3 | AGCGACAC | 0.0263
4 | AGCCGACA | -0.0901
5 | CTATCTCC | -0.217
6 | AATCTTCG | 0.118
7 | CGGTGATC | -0.231
8 | TGAACGCA | 0.202
9 | CTTCGGAA | 0.145
10 | ATACTTCG | -0.0617
11 | GACCCCCC | -0.458
12 | AGCATTTC | 0.0511
13 | CACTTAAA | 0.0186
14 | AGGCTCAC | -0.085
15 | AGAATAAT | 0.147
16 | TCTTGGAA | 0.0914
17 | AGGCCACC | -0.197
18 | TAAAAGCA | 0.0457
19 | GGACGAAA | 0.0387
20 | CCAACAAC | 0.0698
21 | AAGCGCCG | 0.0659
22 | GATCTTGA | 0.0458
23 | ATGTTTGG | -0.0712
24 | CCTCTACA | -0.131
25 | AAAGTTGA | -0.0124

Row | Sequence | PBM E-score
26 | GCCATGCC | -0.0719
27 | GCATTGGA | -0.0362
28 | GAAGGGTA | -0.0339
29 | ATACTAAT | 0.105
30 | CAGATATG | 0.0771
31 | ATTCTAGC | -0.156
32 | TCAAAGAA | -0.104
33 | CATAATAC | 0.0107
34 | GTGGGTTA | -0.0649
35 | GCTCCTGA | -0.119
36 | CACAAGCG | -0.145
37 | AATGTTAG | 0.0286
38 | ACTGGAAT | 0.0248
39 | CGCAGGGC | -0.00694
40 | GAGAGAAC | -0.064
41 | CGGTTGCC | 0.222
42 | CGGAATAG | 0.0775
43 | TATCTTCA | -0.0564
44 | TAACAATA | 0.165
45 | CAGTGTAC | 0.0128
46 | CGCGTGGC | -0.0806
47 | AATTCAGG | 0.176
48 | CTCACAAA | 0.0843
49 | CACAACTA | 0.213
50 | ATGGTTGA | -0.0849

Row | Sequence | PBM E-score
51 | ACGGCCAC | 0.0951
52 | GTGTGAGA | 0.0149
53 | AATCTACG | -0.186
54 | AATCAATG | 0.217
55 | GGTGCTAA | 0.00614
56 | CCTTTATC | -0.0775
57 | CTCCCAGC | -0.124
58 | ATTATTCA | 0.26
59 | TAAGGATA | 0.0582
60 | CGACCCCG | -0.191
61 | CGCTTAAA | 0.139
62 | CATTTTGA | -0.12
63 | GAGGCTCA | -0.174
64 | GCATACAC | -0.0314
65 | AAATATAG | 0.209
66 | AGACTACG | -0.0981
67 | CGCACCCC | -0.247
68 | TAACAGAA | 0.177
69 | TTAGCCAA | -0.0111
70 | ACTGCGGC | 0.0901
71 | CGTAACGA | -0.077
72 | CCGGGTAG | 0.00529
73 | CGTTCGCA | -0.116
74 | ATCTCTCA | 0.188
75 | GCTGGGAA | -0.0764

Row | Sequence | PBM E-score
76 | TAAGTGTA | 0.0637
77 | AGATCGCC | -0.0366
78 | CAGAACGA | 0.00871
79 | CATAGGAC | -0.122
80 | GTTCTACA | -0.128
81 | CGGCTGCA | -0.0112
82 | GGGGAAAA | -0.0376
83 | AGAAACCA | 0.0247
84 | ATCCTAGC | -0.0714
85 | ATGCCTGG | -0.104
86 | CCCATACA | 0.0294
87 | ACCTAAAC | 0.00775
88 | ATTGCAGC | 0.049
89 | ACAGCGGG | -0.0666
90 | GCTACGTA | 0.104
91 | ACTTGCAT | 0.0331
92 | GTTTATAA | 0.264
93 | CGAGTCTC | -0.153
94 | CGACCTAA | 0.0725
95 | AGAAGAGG | -0.345
96 | ATAACTAC | 0.0339
97 | CACCCCTC | -0.0707
98 | ACCCGTGC | -0.181
99 | CCTGCAGG | -0.0462
100 | CAAGATTG | -0.0156

Laid out differently: entries from further up.
Row	Sequence	PBM E-score
76	TAAGTGTA	0.0637
77	AGATCGCC	-0.0366
78	CAGAACGA	0.00871
79	CATAGGAC	-0.122
80	GTTCTACA	-0.128

Later entries

Row | Sequence | PBM E-score
101 | CATAGTCA | 0.143
102 | GAAGAAAA | 0.11
103 | GCCACCGC | -0.0545
104 | ATCGGTTA | 0.0856
105 | CCCTGGCC | -0.299
106 | CTTTATTC | 0.0294
107 | GAAACTGA | -0.183
108 | CCGACCTA | -0.0547
109 | AAAGACCG | -0.19
110 | CGCCTTGA | -0.153
111 | CGTCGCTA | 0.16
112 | TCGGTCAA | 0.165
113 | ATCGAGAT | -0.0305
114 | GCACTCCC | -0.204
115 | CAAATCTG | -0.0187
116 | GATTAAGC | 0.15
117 | ACATAAGT | 0.0802
118 | AAACTTCA | 0.141
119 | CTCCCCGA | -0.192
120 | CACTACAA | 0.0859
121 | ACGCGACG | 0.00196
122 | AAAGTTCT | 0.0926
123 | ACGGCGAT | -0.0308
124 | AATTTAGC | 0.0508
125 | ACACATAG | 0.0113

Row | Sequence | PBM E-score
126 | GACTCGTA | -0.123
127 | AGAGTGTG | 0.0352
128 | ACAGTTAG | -0.0912
129 | AGCGTCAT | -0.0217
130 | CAAAGCGG | 0.0684
131 | CACTATGG | -0.147
132 | CTTTACGC | 0.00543
133 | CAATCCAG | 0.0792
134 | AGCTATTA | 0.0722
135 | TCTGACAA | 0.25
136 | CCGTTCCA | -0.127
137 | CGCAACTA | 0.104
138 | CGTTAACG | 0.127
139 | CAAGAACC | 0.188
140 | TGCCGTAA | -0.0404
141 | GAGCCTAA | -0.0463
142 | GAAGGCGC | -0.151
143 | ATAATTCA | 0.231
144 | TCTGCAAA | -0.116
145 | AGAGCCTA | -0.143
146 | AGCGCCGA | -0.0579
147 | GTACATAC | -0.0558
148 | ATCACAAC | 0.168
149 | CTCCTTTA | -0.227
150 | AAGAAATA | 0.14

Two records drawn at random from those above:
Row | Sequence | PBM E-score
141 | GAGCCTAA | -0.0463
131 | CACTATGG | -0.147

Remaining list, next part

Row | Sequence | PBM E-score
151 | ATGCTATA | -0.0309
152 | GCAATAGA | -0.12
153 | AACACGTT | 0.0313
154 | GCTCCACA | -0.257
155 | ACGAAAAG | 0.0611
156 | CAACTGAC | -0.0722
157 | GAAAAAGC | 0.0104
158 | AATGGGAA | -0.104
159 | AACATGGC | -0.185
160 | GGGGCACC | -0.283
161 | ATACAATG | 0.0735
162 | CGGTGAAA | 0.128
163 | AAGAAGAT | -0.0313
164 | AAAGTAAA | -0.0556
165 | CTTTTCCC | -0.154
166 | ATGAGTAA | 0.286
167 | AGAAAGTG | -0.0968
168 | ATTGCATC | 0.0875
169 | GGAGGCGA | -0.234
170 | AATCCTTG | 0.111
171 | AAAGGCAT | -0.0062
172 | AGCTGAGC | -0.09

Reference: the supplement of paper PMC3334620
